Measurements taken from patent US7939580B2, “Dental composition containing epoxy functional polymerizable compounds” (3M Innovative Properties Company, priority 2004, dated 2011).
Some entries share one result that the patent states for a list of compounds. For at least one compound, name, drawing or mass did not settle the structure.

Experiment: Refractive index (Kruess AR 4 D Abbe refractometer)
Type: physicochemical
Settings: 20.0° C., wavelength 589 nm
Experimental: The refractive index of the halogenated epoxy functional ether derivative was measured with a Kruess AR 4 D device (refractometer according to Abbe's measure principle). The refractive index was measured at 20.0° C. and at a wavelength of 589 nm.

SMILES: CC(C)(c1cc(Cl)c(OCCCC2CO2)c(Cl)c1)c1cc(Cl)c(OCCCC2CO2)c(Cl)c1 (stereo not shown) [Example 3, 2,2-Bis[3,5-dichloro-4-(4,5-epoxy-pentyloxy)-phenyl]-propane]
- Refractive Index (listed as example 3): higher refractive index

SMILES: CC(C)(c1cc(Br)c(OCCC2CO2)c(Br)c1)c1cc(Br)c(OCCC2CO2)c(Br)c1 (stereo not shown) [Example 4, 2,2-Bis[3,5-dibromo-4-(3,4-epoxy-butyloxy)-phenyl]-propane]
- Refractive Index (listed as example 4): higher refractive index

SMILES: CC(C)(c1cc(Br)c(OCCCC2CO2)c(Br)c1)c1cc(Br)c(OCCCC2CO2)c(Br)c1 (stereo not shown) [Example 5, 2,2-Bis[3,5-dibromo-4-(4,5-epoxy-pentyloxy)-phenyl]-propane]
- Refractive Index (listed as example 5): higher refractive index

SMILES: Clc1cccc(CC2CO2)c1OCCC1CO1 (stereo not shown) [Example 6, 4-[2-(2,3-epoxy-propyl)-6-chloro-phenoxy]-1,2-epoxybutane]
- Refractive Index (listed as example 6): higher refractive index
